# Experimental data as given in paper doi:10.1101/325712 (bioRxiv, 2018).
# By UniProt entry, the sequences of proteins in these tests, tags left out. Residues count along the entry.
# UniProt P04792, residues 84-171: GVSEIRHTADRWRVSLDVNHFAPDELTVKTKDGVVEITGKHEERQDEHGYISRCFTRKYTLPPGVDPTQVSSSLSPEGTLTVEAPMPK
# No constants are given. Whether binding was seen depends on the method and setting. Some entries that bind do so weakly or less than the wild type. For some assays here: Tags and fused reporters may be left off the sequences shown.
# How the values were obtained:
# [1] = target: T1, human FLNC domains 18-21 (residues 1943-2408), EEF-tagged (human) (UniProt Q14315); assay: native MS
# T1 sequence: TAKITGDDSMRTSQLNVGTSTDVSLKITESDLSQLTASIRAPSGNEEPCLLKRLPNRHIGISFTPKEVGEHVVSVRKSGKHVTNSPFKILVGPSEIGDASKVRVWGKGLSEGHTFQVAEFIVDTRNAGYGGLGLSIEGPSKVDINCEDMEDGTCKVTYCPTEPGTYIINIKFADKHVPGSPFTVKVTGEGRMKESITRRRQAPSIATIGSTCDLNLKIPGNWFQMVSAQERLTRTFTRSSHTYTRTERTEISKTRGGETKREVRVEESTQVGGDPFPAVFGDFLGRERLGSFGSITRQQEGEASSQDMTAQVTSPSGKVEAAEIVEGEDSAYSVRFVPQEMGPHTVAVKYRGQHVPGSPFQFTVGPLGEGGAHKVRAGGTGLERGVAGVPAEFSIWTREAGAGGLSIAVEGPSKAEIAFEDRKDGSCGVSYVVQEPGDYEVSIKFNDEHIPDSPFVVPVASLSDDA
# [2] = target: T2, human FLNC domains 18-21 lacking the d20 insertion (residues 1943-2408 excluding 2163-2243) (human) (UniProt Q14315); assay: native MS
# T2 sequence: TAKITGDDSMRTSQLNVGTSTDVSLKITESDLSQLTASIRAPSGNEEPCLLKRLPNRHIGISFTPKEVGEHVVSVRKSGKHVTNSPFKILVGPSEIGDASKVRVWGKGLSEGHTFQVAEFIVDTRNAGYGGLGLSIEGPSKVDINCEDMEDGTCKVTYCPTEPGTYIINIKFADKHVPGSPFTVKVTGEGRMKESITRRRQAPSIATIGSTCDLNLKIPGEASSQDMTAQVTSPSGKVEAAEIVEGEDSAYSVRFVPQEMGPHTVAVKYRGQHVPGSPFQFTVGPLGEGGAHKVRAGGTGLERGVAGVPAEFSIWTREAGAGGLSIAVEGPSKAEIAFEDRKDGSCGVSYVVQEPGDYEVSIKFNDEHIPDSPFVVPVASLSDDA
Substance,binding [1],binding [2]
"HspB1 peptide residues 80-88, phosphorylated (from UniProt P04792 80-88)",binds weakly,–
"HspB1 peptide residues 80-88, unphosphorylated (from UniProt P04792 80-88)",binds weakly,binds
human HspB1 ACD (residues 84-171) (from UniProt P04792 84-171) (domain or fragment),no binding,–
peptide mimicking HspB1 C-terminal residues 177-186 (from UniProt P04792 177-186),no binding,–
